# This is one part of the list.
# Legend:
# Assay in all cases: glycan array binding signal (z-score within array); higher = stronger binding
# Details in all cases: glycan notation: IUPAC condensed, linker removed
# GlcA(b1-3)Gal = target: GlcA(b1-3)Gal
# In short: (§1)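 Glycan array data came from 3228 arrays in the Consortium for Functional Glycomics database, and only arrays with an available protein sequence were kept. Glycan names were put into IUPAC-condensed notation, and columns mapping to the same glycan were averaged. The binding signal is a within-array Z-score, averaged across arrays of one protein sequence run at different concentrations or buffers and across linkers. A negative Z-score can be read as non-binding.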
# GlcA(b1-3)GlcNAc = target: GlcA(b1-3)GlcNAc
# In short: as §1
# GlcA(b1-6)Gal = target: GlcA(b1-6)Gal
# In short: as §1
# [1] = target: GlcA3S(b1-3)Gal(b1-4)GlcNAc(b1-2)Man
# In short: as §1
# [2] = target: GlcA3S(b1-3)Gal(b1-4)GlcNAc(b1-3)Gal(b1-4)Glc
# In short: as §1
# [3] = target: GlcNAc(a1-3)Gal(b1-4)GlcNAc
# In short: as §1
# [4] = target: GlcNAc(a1-4)Gal(b1-3)GlcNAc
# In short: as §1
# [5] = target: GlcNAc(a1-4)Gal(b1-4)GalNAc
# In short: as §1
# [6] = target: GlcNAc(a1-4)Gal(b1-4)GlcNAc
# In short: as §1
# [7] = target: GlcNAc(a1-4)Gal(b1-4)GlcNAc(b1-3)Gal(b1-4)Glc
# In short: as §1
# [8] = target: GlcNAc(a1-4)Gal(b1-4)GlcNAc(b1-3)Gal(b1-4)GlcNAc
# In short: as §1
# [9] = target: GlcNAc(a1-4)Gal(b1-4)GlcNAc(b1-3)Gal(b1-4)GlcNAc(b1-3)Gal(b1-4)GlcNAc
# In short: as §1
# [10] = target: GlcNAc(a1-4)Gal(b1-4)GlcNAc(b1-3)Gal(b1-4)[Fuc(a1-3)]GlcNAc(b1-3)Gal(b1-4)[Fuc(a1-3)]GlcNAc
# In short: as §1
# [11] = target: GlcNAc(a1-6)Gal(b1-4)GlcNAc
# In short: as §1
# [12] = target: GlcNAc(b1-2)Gal(b1-3)GalNAc
# In short: as §1
# [13] = target: GlcNAc(b1-2)Man(a1-3)[GlcNAc(b1-2)Man(a1-6)]Man(b1-4)GlcNAc(b1-4)GlcNAc
# In short: as §1
# [14] = target: GlcNAc(b1-2)Man(a1-3)[GlcNAc(b1-2)Man(a1-6)]Man(b1-4)GlcNAc(b1-4)[Fuc(a1-6)]GlcNAc
# In short: as §1
# [15] = target: GlcNAc(b1-2)Man(a1-3)[GlcNAc(b1-4)][GlcNAc(b1-2)Man(a1-6)]Man(b1-4)GlcNAc(b1-4)GlcNAc
# In short: as §1
# [16] = target: GlcNAc(b1-2)Man(a1-3)[GlcNAc(b1-4)][GlcNAc(b1-2)Man(a1-6)]Man(b1-4)GlcNAc(b1-4)[Fuc(a1-6)]GlcNAc
# In short: as §1
# [17] = target: GlcNAc(b1-2)[GlcNAc(b1-4)]Man(a1-3)[GlcNAc(b1-2)Man(a1-6)]Man(b1-4)GlcNAc(b1-4)GlcNAc
# In short: as §1
# [18] = target: GlcNAc(b1-2)[GlcNAc(b1-4)]Man(a1-3)[GlcNAc(b1-4)][GlcNAc(b1-2)Man(a1-6)]Man(b1-4)GlcNAc(b1-4)GlcNAc
# In short: as §1
# [19] = target: GlcNAc(b1-2)[GlcNAc(b1-4)]Man(a1-3)[GlcNAc(b1-4)][GlcNAc(b1-2)[GlcNAc(b1-6)]Man(a1-6)]Man(b1-4)GlcNAc(b1-4)GlcNAc
# In short: as §1
# [20] = target: GlcNAc(b1-2)[GlcNAc(b1-4)]Man(a1-3)[GlcNAc(b1-4)][GlcNAc(b1-2)[GlcNAc(b1-6)]Man(a1-6)]Man(b1-4)GlcNAc(b1-4)[Fuc(a1-6)]GlcNAc
# In short: as §1
# [21] = target: GlcNAc(b1-2)[GlcNAc(b1-6)]Man(a1-6)[GlcNAc(b1-2)Man(a1-3)]Man(b1-4)GlcNAc(b1-4)GlcNAc
# In short: as §1
# [22] = target: GlcNAc(b1-2)[GlcNAc(b1-6)]Man(a1-6)[GlcNAc(b1-2)Man(a1-3)]Man(b1-4)GlcNAc(b1-4)[Fuc(a1-6)]GlcNAc
# In short: as §1
# [23] = target: GlcNAc(b1-2)[GlcNAc(b1-6)]Man(a1-6)[GlcNAc(b1-4)][GlcNAc(b1-2)Man(a1-3)]Man(b1-4)GlcNAc(b1-4)GlcNAc
# In short: as §1
# GlcNAc(b1-3)Fuc = target: GlcNAc(b1-3)Fuc
# In short: as §1
# GlcNAc(b1-3)Gal = target: GlcNAc(b1-3)Gal
# In short: as §1
# [24] = target: GlcNAc(b1-3)Gal(b1-3)GalNAc
# In short: as §1
# GlcNAc(b1-3)Gal(b1-4)Glc = target: GlcNAc(b1-3)Gal(b1-4)Glc
# In short: as §1
# [25] = target: GlcNAc(b1-3)Gal(b1-4)GlcNAc
# In short: as §1
# [26] = target: GlcNAc(b1-3)Gal(b1-4)GlcNAc(b1-2)Man(a1-3)[GlcNAc(b1-3)Gal(b1-4)GlcNAc(b1-2)Man(a1-6)]Man(b1-4)GlcNAc(b1-4)GlcNAc
# In short: as §1
# [27] = target: GlcNAc(b1-3)Gal(b1-4)GlcNAc(b1-2)Man(a1-3)[GlcNAc(b1-3)Gal(b1-4)GlcNAc(b1-2)Man(a1-6)]Man(b1-4)GlcNAc(b1-4)[Fuc(a1-6)]GlcNAc
# In short: as §1
# [28] = target: GlcNAc(b1-3)Gal(b1-4)GlcNAc(b1-2)[GlcNAc(b1-3)Gal(b1-4)GlcNAc(b1-6)]Man(a1-6)[GlcNAc(b1-3)Gal(b1-4)GlcNAc(b1-2)Man(a1-3)]Man(b1-4)GlcNAc(b1-4)GlcNAc
# In short: as §1
# [29] = target: GlcNAc(b1-3)Gal(b1-4)GlcNAc(b1-3)Gal(b1-4)GlcNAc
# In short: as §1
# [30] = target: GlcNAc(b1-3)Gal(b1-4)GlcNAc(b1-3)Gal(b1-4)GlcNAc(b1-2)Man(a1-3)[GlcNAc(b1-3)Gal(b1-4)GlcNAc(b1-3)Gal(b1-4)GlcNAc(b1-2)Man(a1-6)]Man(b1-4)GlcNAc(b1-4)GlcNAc
# In short: as §1
# [31] = target: GlcNAc(b1-3)Gal(b1-4)GlcNAc(b1-3)Gal(b1-4)GlcNAc(b1-2)Man(a1-3)[GlcNAc(b1-3)Gal(b1-4)GlcNAc(b1-3)Gal(b1-4)GlcNAc(b1-2)Man(a1-6)]Man(b1-4)GlcNAc(b1-4)[Fuc(a1-6)]GlcNAc
# In short: as §1
binder,measurement,setting,value
FliC (Clostridium difficile) (protein) MRVNTNVSALIANNQMGRNVNGQSKSMEKLSSGVRIKRAADDAAGLAISEKMRAQIKGLDQAGRNVQDGISVVQTAEGSLEETGNILQRMRTLSLQSANEINNTEEREKIADELTQLKDEIERISSSTEFNGKKLLDGTSSTIRLQVGASYGTNVSGTSNNNNEIKIQLVNTASIMASAGITTASIGSMKAGGTTGTDAAKTMVSSLDAALKSLNSSRAKLGAQQNRLESTQNNLNNTLENVTAAESRIRDTDVASEMVNLSKMNILVQASQSMLAQANQQPQGVLQLLG,glycan array binding signal (z-score),GlcA(b1-3)Gal,0.217
same,glycan array binding signal (z-score),GlcA(b1-3)GlcNAc,-0.37
same,glycan array binding signal (z-score),GlcA(b1-6)Gal,0.713
same,glycan array binding signal (z-score),[1],-0.662
same,glycan array binding signal (z-score),[2],-0.763
same,glycan array binding signal (z-score),[3],0.625
same,glycan array binding signal (z-score),[4],0.947
same,glycan array binding signal (z-score),[5],-0.008
same,glycan array binding signal (z-score),[6],0.327
same,glycan array binding signal (z-score),[7],-0.393
same,glycan array binding signal (z-score),[8],-0.542
same,glycan array binding signal (z-score),[9],-0.392
same,glycan array binding signal (z-score),[10],0.855
same,glycan array binding signal (z-score),[11],-0.495
same,glycan array binding signal (z-score),[12],-0.219
same,glycan array binding signal (z-score),[13],0.05
same,glycan array binding signal (z-score),[14],0.458
same,glycan array binding signal (z-score),[15],-0.661
same,glycan array binding signal (z-score),[16],-0.206
same,glycan array binding signal (z-score),[17],-0.255
same,glycan array binding signal (z-score),[18],0.172
same,glycan array binding signal (z-score),[19],-0.615
same,glycan array binding signal (z-score),[20],-0.765
same,glycan array binding signal (z-score),[21],-0.039
same,glycan array binding signal (z-score),[22],0.19
same,glycan array binding signal (z-score),[23],-0.459
same,glycan array binding signal (z-score),GlcNAc(b1-3)Fuc,-0.83
same,glycan array binding signal (z-score),GlcNAc(b1-3)Gal,-0.334
same,glycan array binding signal (z-score),[24],-0.179
same,glycan array binding signal (z-score),GlcNAc(b1-3)Gal(b1-4)Glc,-0.085
same,glycan array binding signal (z-score),[25],-0.45
same,glycan array binding signal (z-score),[26],-0.26
same,glycan array binding signal (z-score),[27],0.034
same,glycan array binding signal (z-score),[28],3
same,glycan array binding signal (z-score),[29],-0.294
same,glycan array binding signal (z-score),[30],0.372
same,glycan array binding signal (z-score),[31],1.04

# Exported with bars between the fields: entries from further up
binder | measurement | setting | value
FliC (Clostridium difficile) (protein) MRVNTNVSALIANNQMGRNVNGQSKSMEKLSSGVRIKRAADDAAGLAISEKMRAQIKGLDQAGRNVQDGISVVQTAEGSLEETGNILQRMRTLSLQSANEINNTEEREKIADELTQLKDEIERISSSTEFNGKKLLDGTSSTIRLQVGASYGTNVSGTSNNNNEIKIQLVNTASIMASAGITTASIGSMKAGGTTGTDAAKTMVSSLDAALKSLNSSRAKLGAQQNRLESTQNNLNNTLENVTAAESRIRDTDVASEMVNLSKMNILVQASQSMLAQANQQPQGVLQLLG | glycan array binding signal (z-score) | [13] | 0.05
same | glycan array binding signal (z-score) | [30] | 0.372
